In the supplement of paper PMC10849652:
The other results are listed elsewhere or left out.

The chains behind the UniProt entries cited, without tags or fusion partners. Where a name states a change or a piece, a line headed by the entry shows the natural chain unless it says otherwise.
UniProt Q4ADV7: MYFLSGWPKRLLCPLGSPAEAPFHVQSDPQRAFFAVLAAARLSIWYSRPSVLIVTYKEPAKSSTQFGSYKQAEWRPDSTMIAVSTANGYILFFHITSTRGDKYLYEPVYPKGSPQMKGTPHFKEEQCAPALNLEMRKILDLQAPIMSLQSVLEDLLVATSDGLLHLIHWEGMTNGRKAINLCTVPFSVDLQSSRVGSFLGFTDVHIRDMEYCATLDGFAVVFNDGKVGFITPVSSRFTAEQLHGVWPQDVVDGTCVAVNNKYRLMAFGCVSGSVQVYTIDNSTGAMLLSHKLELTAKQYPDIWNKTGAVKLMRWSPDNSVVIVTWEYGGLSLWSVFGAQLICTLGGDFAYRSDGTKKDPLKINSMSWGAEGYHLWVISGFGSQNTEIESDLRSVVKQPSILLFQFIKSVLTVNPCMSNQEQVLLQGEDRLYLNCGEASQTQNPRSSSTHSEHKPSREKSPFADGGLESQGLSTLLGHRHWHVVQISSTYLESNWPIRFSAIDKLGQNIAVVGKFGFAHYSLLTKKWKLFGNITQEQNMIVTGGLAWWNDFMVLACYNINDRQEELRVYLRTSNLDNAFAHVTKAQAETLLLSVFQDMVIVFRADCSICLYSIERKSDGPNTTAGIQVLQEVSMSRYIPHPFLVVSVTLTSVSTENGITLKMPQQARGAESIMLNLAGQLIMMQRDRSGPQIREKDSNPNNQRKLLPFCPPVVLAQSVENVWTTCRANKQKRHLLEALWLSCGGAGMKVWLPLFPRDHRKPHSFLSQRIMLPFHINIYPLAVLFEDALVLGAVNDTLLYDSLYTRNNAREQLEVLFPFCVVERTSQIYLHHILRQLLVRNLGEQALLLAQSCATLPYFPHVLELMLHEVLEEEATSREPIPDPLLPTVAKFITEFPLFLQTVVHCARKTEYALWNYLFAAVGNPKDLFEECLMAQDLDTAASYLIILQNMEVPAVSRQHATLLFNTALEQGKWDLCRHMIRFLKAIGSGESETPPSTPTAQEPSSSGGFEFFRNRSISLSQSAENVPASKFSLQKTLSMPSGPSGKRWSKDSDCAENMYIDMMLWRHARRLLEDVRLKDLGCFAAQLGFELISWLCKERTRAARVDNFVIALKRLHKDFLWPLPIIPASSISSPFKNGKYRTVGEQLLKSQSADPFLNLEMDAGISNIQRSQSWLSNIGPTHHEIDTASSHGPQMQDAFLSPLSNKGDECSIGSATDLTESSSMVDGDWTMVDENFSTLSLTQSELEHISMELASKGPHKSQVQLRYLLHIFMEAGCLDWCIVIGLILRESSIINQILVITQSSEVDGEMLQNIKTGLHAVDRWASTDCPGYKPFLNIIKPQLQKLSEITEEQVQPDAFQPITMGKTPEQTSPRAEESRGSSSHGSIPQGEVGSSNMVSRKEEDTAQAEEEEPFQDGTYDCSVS
UniProt Q96AA3: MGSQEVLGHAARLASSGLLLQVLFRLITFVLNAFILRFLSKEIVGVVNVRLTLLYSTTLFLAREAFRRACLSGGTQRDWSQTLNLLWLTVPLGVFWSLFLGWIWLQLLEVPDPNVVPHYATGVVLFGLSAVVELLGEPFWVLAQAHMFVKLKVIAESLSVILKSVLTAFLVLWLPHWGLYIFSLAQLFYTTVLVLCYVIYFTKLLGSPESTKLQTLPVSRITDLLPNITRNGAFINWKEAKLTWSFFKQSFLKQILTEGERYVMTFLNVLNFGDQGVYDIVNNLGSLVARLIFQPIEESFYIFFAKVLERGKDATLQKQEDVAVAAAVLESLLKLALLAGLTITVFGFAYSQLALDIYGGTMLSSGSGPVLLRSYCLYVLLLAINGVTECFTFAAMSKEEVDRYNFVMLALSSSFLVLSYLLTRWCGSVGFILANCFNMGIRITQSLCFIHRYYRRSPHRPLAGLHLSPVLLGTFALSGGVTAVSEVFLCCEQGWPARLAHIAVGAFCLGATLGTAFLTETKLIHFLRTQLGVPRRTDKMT
UniProt Q96DM3: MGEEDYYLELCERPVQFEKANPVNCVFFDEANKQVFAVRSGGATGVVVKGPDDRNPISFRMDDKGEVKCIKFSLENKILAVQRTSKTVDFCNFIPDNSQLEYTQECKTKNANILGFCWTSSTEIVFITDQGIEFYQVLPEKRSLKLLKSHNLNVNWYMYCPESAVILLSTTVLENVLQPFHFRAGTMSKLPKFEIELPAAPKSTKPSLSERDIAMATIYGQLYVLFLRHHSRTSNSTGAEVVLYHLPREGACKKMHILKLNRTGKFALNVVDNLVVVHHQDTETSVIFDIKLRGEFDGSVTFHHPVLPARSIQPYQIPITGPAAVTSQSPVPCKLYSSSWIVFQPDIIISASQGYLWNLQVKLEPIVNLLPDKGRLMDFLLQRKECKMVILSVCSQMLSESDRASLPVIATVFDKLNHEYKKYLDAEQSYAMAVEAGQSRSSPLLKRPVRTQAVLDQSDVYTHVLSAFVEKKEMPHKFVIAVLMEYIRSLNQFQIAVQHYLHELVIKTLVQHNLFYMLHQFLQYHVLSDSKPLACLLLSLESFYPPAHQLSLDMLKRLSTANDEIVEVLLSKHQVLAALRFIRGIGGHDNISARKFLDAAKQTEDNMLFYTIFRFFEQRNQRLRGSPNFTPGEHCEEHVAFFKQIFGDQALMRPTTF
UniProt Q8IXI1, whole entry, looked up: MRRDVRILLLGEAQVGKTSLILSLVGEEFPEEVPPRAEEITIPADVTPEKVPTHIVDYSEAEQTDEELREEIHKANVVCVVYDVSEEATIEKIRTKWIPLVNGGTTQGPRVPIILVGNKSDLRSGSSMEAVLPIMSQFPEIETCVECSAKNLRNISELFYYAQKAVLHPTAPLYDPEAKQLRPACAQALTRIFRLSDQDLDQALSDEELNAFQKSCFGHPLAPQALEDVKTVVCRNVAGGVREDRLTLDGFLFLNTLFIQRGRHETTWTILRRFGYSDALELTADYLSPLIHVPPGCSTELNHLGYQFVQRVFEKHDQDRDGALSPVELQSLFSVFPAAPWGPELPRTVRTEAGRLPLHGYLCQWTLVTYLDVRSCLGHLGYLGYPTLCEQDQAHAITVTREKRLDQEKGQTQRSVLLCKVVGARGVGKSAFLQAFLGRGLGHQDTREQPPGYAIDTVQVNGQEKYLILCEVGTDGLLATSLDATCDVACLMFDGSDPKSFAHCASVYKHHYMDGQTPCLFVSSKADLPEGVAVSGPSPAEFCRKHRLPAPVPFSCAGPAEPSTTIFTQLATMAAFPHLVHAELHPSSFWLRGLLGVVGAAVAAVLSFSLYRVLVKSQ
UniProt O15258: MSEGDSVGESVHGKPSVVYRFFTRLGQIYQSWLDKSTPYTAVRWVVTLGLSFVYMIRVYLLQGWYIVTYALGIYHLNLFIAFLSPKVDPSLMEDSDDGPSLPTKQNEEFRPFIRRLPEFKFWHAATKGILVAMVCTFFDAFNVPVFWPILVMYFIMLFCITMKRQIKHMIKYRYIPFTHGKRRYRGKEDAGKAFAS
UniProt Q9H6H4: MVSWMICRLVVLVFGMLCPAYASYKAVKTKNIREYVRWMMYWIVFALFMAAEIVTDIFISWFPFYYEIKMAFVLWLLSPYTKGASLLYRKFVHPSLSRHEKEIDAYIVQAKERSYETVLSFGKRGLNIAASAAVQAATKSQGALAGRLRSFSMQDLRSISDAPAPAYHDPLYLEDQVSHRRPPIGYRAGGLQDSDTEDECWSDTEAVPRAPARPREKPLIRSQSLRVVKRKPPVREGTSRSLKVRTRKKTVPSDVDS
UniProt Q9P0P0: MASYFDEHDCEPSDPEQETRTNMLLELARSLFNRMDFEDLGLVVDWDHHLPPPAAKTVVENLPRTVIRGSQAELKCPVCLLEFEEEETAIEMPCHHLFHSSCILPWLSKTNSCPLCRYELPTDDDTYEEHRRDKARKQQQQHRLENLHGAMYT
UniProt P51606: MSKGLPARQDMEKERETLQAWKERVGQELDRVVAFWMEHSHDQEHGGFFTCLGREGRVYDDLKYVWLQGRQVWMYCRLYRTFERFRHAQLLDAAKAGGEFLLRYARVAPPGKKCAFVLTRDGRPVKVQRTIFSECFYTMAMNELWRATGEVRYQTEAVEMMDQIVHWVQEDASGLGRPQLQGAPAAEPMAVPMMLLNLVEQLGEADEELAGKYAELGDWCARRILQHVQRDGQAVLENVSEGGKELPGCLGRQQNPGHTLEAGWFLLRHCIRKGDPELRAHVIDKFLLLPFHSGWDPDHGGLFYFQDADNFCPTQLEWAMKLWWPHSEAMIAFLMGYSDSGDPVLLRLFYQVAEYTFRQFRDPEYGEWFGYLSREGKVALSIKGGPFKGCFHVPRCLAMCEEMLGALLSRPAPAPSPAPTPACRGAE
UniProt Q8WZ73: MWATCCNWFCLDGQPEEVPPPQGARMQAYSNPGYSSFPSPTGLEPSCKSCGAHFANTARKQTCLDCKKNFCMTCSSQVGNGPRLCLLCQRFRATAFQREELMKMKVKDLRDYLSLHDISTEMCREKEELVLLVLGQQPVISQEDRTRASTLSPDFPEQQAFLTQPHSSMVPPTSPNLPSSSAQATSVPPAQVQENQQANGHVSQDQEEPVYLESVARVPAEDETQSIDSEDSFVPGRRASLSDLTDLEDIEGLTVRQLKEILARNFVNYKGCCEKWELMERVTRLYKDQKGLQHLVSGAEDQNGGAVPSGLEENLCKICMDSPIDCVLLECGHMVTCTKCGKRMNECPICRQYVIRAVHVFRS
UniProt Q9P258, whole entry, looked up: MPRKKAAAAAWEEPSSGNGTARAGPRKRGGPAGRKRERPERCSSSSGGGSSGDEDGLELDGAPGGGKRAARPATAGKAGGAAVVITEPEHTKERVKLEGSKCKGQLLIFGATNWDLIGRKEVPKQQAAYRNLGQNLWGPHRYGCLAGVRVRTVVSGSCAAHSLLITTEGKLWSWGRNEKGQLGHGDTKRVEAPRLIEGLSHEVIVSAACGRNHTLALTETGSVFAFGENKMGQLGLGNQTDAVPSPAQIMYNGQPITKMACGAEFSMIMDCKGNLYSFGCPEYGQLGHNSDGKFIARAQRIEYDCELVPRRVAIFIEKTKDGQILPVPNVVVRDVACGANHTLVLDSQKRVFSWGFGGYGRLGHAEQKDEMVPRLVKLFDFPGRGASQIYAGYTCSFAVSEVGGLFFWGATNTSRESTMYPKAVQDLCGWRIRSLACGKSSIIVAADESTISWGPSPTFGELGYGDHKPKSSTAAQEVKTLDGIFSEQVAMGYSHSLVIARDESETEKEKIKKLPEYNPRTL
UniProt Q6NUQ1: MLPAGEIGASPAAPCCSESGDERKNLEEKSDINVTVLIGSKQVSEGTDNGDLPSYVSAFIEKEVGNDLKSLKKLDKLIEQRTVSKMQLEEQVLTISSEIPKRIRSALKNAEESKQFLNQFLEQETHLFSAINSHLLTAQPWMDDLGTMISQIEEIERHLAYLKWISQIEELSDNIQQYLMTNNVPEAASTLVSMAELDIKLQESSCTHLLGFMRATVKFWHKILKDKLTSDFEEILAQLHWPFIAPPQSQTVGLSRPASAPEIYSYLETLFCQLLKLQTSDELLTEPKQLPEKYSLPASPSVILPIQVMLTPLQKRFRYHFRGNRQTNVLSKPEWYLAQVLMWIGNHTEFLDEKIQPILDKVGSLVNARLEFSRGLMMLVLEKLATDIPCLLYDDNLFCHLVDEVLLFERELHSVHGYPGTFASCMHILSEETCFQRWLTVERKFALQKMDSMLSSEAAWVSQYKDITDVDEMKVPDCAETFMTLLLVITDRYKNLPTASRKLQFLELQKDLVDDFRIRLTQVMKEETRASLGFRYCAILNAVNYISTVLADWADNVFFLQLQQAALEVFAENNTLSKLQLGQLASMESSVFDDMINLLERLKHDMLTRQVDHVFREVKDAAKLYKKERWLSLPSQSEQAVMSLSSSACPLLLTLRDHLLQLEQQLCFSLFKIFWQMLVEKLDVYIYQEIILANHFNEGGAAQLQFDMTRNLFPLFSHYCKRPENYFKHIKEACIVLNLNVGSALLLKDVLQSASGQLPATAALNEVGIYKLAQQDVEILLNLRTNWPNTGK
UniProt Q96I51, whole entry, looked up: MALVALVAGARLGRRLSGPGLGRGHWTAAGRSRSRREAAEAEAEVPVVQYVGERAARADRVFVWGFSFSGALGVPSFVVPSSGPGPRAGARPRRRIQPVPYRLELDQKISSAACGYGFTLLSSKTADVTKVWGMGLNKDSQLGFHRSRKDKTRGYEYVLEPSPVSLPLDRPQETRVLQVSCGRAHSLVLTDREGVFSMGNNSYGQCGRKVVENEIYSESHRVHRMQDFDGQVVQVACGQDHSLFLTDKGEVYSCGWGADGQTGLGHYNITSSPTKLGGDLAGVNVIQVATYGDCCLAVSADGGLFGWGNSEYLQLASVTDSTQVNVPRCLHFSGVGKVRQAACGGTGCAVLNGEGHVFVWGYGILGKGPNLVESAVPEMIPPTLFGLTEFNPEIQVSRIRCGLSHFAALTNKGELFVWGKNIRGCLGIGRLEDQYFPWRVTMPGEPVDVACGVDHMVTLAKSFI

Tests used:
Experiment in all cases: log2 fold change, soluble protein after heating vs DMSO (PISA); higher = thermal stabilisation; K562 cells, 10 uM, 30 min; active = over 0.2 and 3.5 SD of the protein, either way, in both replicates (recomputed)
erlotinib = compound: C#Cc1cccc(Nc2ncnc3cc(OCCOC)c(OCCOC)cc23)c1 [erlotinib]
Summary of the method: (§1)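 K562 cells at 2×10^6 cells/mL were treated for 30 min with 10 μM compound, and aliquots were heated for 3 min over 48°C-58°C before pooling. Extraction used PBS with 0.5% NP-40 at 4°C, and soluble protein was the supernatant after 21,000xg for 90 min, measured by TMTpro 16plex LC-MS/MS with channel sums equalised. Thermal stability values, relative to control samples and from duplicates, are log2 fold changes.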

[1] = compound: C/C(=N\NC(=O)C1=CC(=CC=C1)S(=O)(=O)N2CCOCC2)/C3=C(C=CC(=C3)Cl)O
Summary of the method: as §1

[2] = compound: C1=CC(=C(C=C1Cl)C2=NC3=NC=CN=C3C(=N2)NC4=CC=NC=C4)F
Summary of the method: as §1

[3] = compound: C1=CC(=CC=C1C2=NC3=C(N2)C=C(C=C3)C(=O)N)OC4=CC=C(C=C4)Cl
Summary of the method: as §1

[4] = compound: C1=CC2=C(C=CC(=C2)/C=C\3/C(=O)NC(=NCC4=CC=CS4)S3)N=C1
Summary of the method: as §1

[5] = compound: C1=CC2=NC=CN=C2C=C1/C=C/3\C(=O)NC(=O)S3
Summary of the method: as §1

[6] = compound: C1=CC=C(C=C1)C2=NC(=C(N2)C3=CC=NC=C3)C4=CC(=C(C=C4)Cl)O
Summary of the method: as §1

[7] = compound: C1=CC=C2C(=C1)C3=NNC4=CC=CC(=C43)C2=O
Summary of the method: as §1

[8] = compound: C1CCN(C1)C(=O)NC2=CC=CC(=C2)NC3=NC=C(C(=N3)NCCC4=CN=CN4)Br
Summary of the method: as §1

[9] = compound: C1CN(CCC1(CC2=CC=C(C=C2)Cl)N)C3=NC=NC4=C3C=CN4
Summary of the method: as §1

Measured: log2 fold change

RBM4 (UniProt Q9BWF3)
inactive: erlotinib 0.02 | [1] 0 | [2] -0.102 | [3] 0.011 | [4] -0.012 | [5] 0.054 | [6] -0.041 | [7] -0.035 | [8] 0.012 | [9] -0.009

RIC1 (UniProt Q4ADV7)
inactive: erlotinib 0.065 | [1] -0.172 | [2] -0.086 | [3] 0.056 | [4] 0.154 | [5] -0.029 | [6] -0.019 | [7] 0.22

RNF167 (UniProt Q9H6Y7)
inactive: erlotinib -0.133 | [1] -0.073 | [2] -0.069 | [3] 0.052 | [4] 0.025 | [5] 0.025 | [6] -0.004 | [7] -0.07 | [8] -0.018 | [9] -0.009

RFT1 (UniProt Q96AA3)
inactive: erlotinib 0.015 | [1] -0.032 | [2] 0.021 | [3] 0.012 | [4] 0.034 | [5] 0.025 | [6] -0.036 | [7] -0.024 | [8] -0.029 | [9] 0.099

RNF214 (UniProt Q8ND24)
inactive: erlotinib 0.07 | [1] 0.089 | [2] 0.003 | [3] -0.009 | [4] 0.032 | [5] -0.042 | [6] -0.068 | [7] 0.084 | [8] -0.053 | [9] -0.068

RMC1 (UniProt Q96DM3)
inactive: erlotinib 0.028 | [1] 0.124 | [2] 0.048 | [3] 0.04 | [4] 0.027 | [5] -0.038 | [6] 0.011 | [7] -0.055 | [8] 0.048 | [9] -0.038

RIOX2 (UniProt Q8IUF8)
inactive: erlotinib 0.069 | [1] -0.29 | [2] 0 | [3] 0.005 | [4] -0.073 | [5] -0.032 | [6] 0.037 | [7] 0.051 | [8] 0.053 | [9] -0.018

RMDN1 (UniProt Q96DB5)
inactive: erlotinib 0.208 | [1] 0.066 | [2] 0.032 | [3] 0.01 | [4] 0.149 | [5] 0.001 | [6] 0.106 | [7] 0.019 | [8] 0.005 | [9] 0.032

RFESD isoform 2 (UniProt Q8TAC1)
inactive: erlotinib 0.025 | [1] 0.015 | [2] 0.012 | [3] 0.07 | [4] 0.001 | [5] 0.043 | [6] 0.017 | [7] -0.058 | [8] 0.018 | [9] 0.068

RCN2 isoform 2 (UniProt Q14257)
inactive: erlotinib 0.017 | [1] -0.037 | [2] 0.018 | [3] 0.009 | [4] 0.016 | [5] 0.013 | [6] 0 | [7] -0.048 | [8] 0.045 | [9] -0.011

RHOT2 (UniProt Q8IXI1)
inactive: erlotinib 0.101 | [1] 0.021 | [2] -0.054 | [3] -0.025 | [4] 0.065 | [5] -0.004 | [6] -0.037 | [7] 0.011 | [8] -0.003 | [9] -0.06

RNASEH2C (UniProt Q8TDP1)
inactive: erlotinib 0.012 | [1] 0.193 | [2] 0.051 | [3] 0.008 | [4] 0.152 | [5] -0.028 | [6] 0.006 | [7] 0.034 | [8] -0.058 | [9] -0.031

Pulled one by one from the entries so far (two):
RHOT2 (UniProt Q8IXI1)
inactive: erlotinib 0.101 | [1] 0.021 | [2] -0.054 | [3] -0.025 | [4] 0.065 | [5] -0.004 | [6] -0.037 | [7] 0.011 | [8] -0.003 | [9] -0.06

RNF167 (UniProt Q9H6Y7)
inactive: erlotinib -0.133 | [1] -0.073 | [2] -0.069 | [3] 0.052 | [4] 0.025 | [5] 0.025 | [6] -0.004 | [7] -0.07 | [8] -0.018 | [9] -0.009

More results.

RER1 (UniProt O15258)
inactive: erlotinib 0.009 | [1] -0.022 | [2] 0.003 | [3] -0.023 | [4] -0.042 | [5] 0.07 | [6] 0.04 | [7] -0.013 | [8] -0.028 | [9] 0.024

REEP5 (UniProt Q00765)
inactive: erlotinib 0.02 | [1] -0.136 | [2] -0.026 | [3] -0.028 | [4] -0.006 | [5] 0.002 | [6] -0.033 | [7] 0.031 | [8] 0.01 | [9] 0.054

RNF126 (UniProt Q9BV68)
inactive: erlotinib 0.006 | [1] -0.056 | [2] 0.021 | [3] -0.016 | [4] 0.056 | [5] 0.005 | [6] -0.026 | [7] 0.002 | [8] -0.04 | [9] 0.035

RETREG3 (UniProt Q86VR2)
inactive: erlotinib 0.004 | [1] 0.072 | [2] 0.037 | [3] 0.031 | [4] -0.053 | [5] 0.07 | [6] 0.062 | [7] -0.087 | [8] -0.029 | [9] 0.032

RECQL (UniProt P46063)
inactive: erlotinib -0.019 | [1] 0.072 | [2] 0.066 | [3] -0.005 | [4] 0.046 | [5] 0.004 | [6] -0.004 | [7] -0.003 | [8] -0.062 | [9] 0.01

REEP3 (UniProt Q6NUK4)
inactive: erlotinib 0.068 | [1] 0.141 | [2] -0.071 | [3] -0.004 | [4] -0.062 | [5] 0.091 | [6] -0.169 | [7] -0.05 | [8] -0.111 | [9] -0.068

REEP6 (UniProt Q96HR9)
inactive: erlotinib 0.036 | [1] 0.064 | [2] 0.003 | [3] -0.023 | [4] 0.031 | [5] 0.108 | [6] 0.113 | [7] -0.04 | [8] -0.116 | [9] 0.031

RBM39 (UniProt Q14498)
inactive: erlotinib 0.087 | [1] 0.074 | [2] 0.013 | [3] -0.028 | [4] -0.021 | [5] -0.052 | [6] -0.022 | [7] -0.168 | [8] -0.071 | [9] -0.232

REEP4 (UniProt Q9H6H4)
inactive: erlotinib -0.024 | [1] 0.027 | [2] -0.049 | [3] 0.026 | [4] -0.018 | [5] 0.005 | [6] 0.063 | [7] -0.04 | [8] 0.047 | [9] -0.081

RFC5 (UniProt P40937)
inactive: erlotinib 0.032 | [1] 0.005 | [2] 0.067 | [3] -0.013 | [4] 0.036 | [5] 0 | [6] 0.012 | [7] 0.029 | [8] 0.003 | [9] 0.028

RNF181 (UniProt Q9P0P0)
inactive: erlotinib 0.056 | [1] -0.064 | [2] 0.068 | [3] -0.029 | [4] -0.003 | [5] 0.048 | [6] -0.012 | [7] -0.023 | [8] -0.001 | [9] -0.011

RENBP (UniProt P51606)
inactive: erlotinib -0.009 | [1] -0.001 | [2] 0.045 | [3] 0.016 | [4] 0.02 | [5] 0.02 | [6] -0.042 | [7] -0.025 | [8] -0.004 | [9] -0.014

RFFL (UniProt Q8WZ73)
inactive: erlotinib -0.044 | [1] 0.094 | [2] 0.112 | [3] -0.003 | [4] 0.036 | [5] 0.023 | [6] 0.057 | [7] -0.083 | [8] -0.004 | [9] -0.046

RCC2 (UniProt Q9P258)
inactive: erlotinib -0.041 | [1] 0.049 | [2] 0.034 | [3] -0.007 | [4] 0.03 | [5] -0.017 | [6] -0.037 | [7] 0.019 | [8] -0.01 | [9] -0.007

RINT1 (UniProt Q6NUQ1)
inactive: erlotinib 0.097 | [1] 0.142 | [2] -0.354 | [3] -0.036 | [4] 0.187 | [5] -0.049 | [6] 0.05 | [7] 0.099 | [8] -0.128 | [9] -0.13

RCC1L (UniProt Q96I51)
inactive: erlotinib 0.011 | [1] 0.038 | [2] 0.016 | [3] 0.014 | [4] 0.047 | [5] 0.046 | [6] 0.044 | [7] -0.009 | [8] 0.027 | [9] 0.034

RNF14 (UniProt Q9UBS8)
inactive: erlotinib -0.006 | [1] 0.038 | [2] 0.048 | [3] 0.043 | [4] 0.015 | [5] -0.019 | [6] 0.014 | [7] -0.029 | [8] 0.002 | [9] 0.071

RHEB (UniProt Q15382)
inactive: erlotinib 0.028 | [1] 0.042 | [2] 0.075 | [3] -0.041 | [4] 0.008 | [5] 0.008 | [6] -0.008 | [7] -0.004 | [8] -0.005 | [9] 0.041
